Results deposited as PubChem BioAssay AID652272 (Drosophila RNAi Screening Center, 2013)
The deposit covers about 21,000 reagents; shown is a random part of those that have a named target and a result. Over the whole deposit, 503 (2.4%) were called active. 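Raw plate light values, not normalised; calls rest on replicate z-scores that were not deposited; hits include reporter decreases as well as increases.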 Unmarked entries are inactive. The numbers tell different reagents against one gene apart. A plus sign joins genes that one reagent is predicted to hit. Reagent sequences are not shown. Not given: the amount of reagent, the time to read-out.

Assay: 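Finding fly genes that regulate Hedgehog signal transduction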 (primary screen)
Cells: Drosophila clone 8 (Cl8) cells
Knock-down reagent: long dsRNA against Drosophila genes
Measurement: 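Plate reader light from a firefly reporter under a ptc promoter fragment that responds to Hedgehog, with Renilla light as transfection reference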
Direction: firefly Hh reporter signal: higher = more ptc reporter light; Renilla reference signal: higher = more Renilla control light
Call rule: 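Called a hit if the two-replicate mean z-score lies below -2 or above +3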
Meaning of the calls: active = hit: reporter lowered or raised; inactive = not a hit

Target gene | dsRNA no. | firefly Hh reporter signal, replicate 1 | firefly Hh reporter signal, replicate 2 | firefly Hh reporter signal, replicate 3 | Renilla reference signal, replicate 1 | Renilla reference signal, replicate 2
CG16758 (GeneID 38315) | 1 | 86481 | 1.30e5 | – | 2180 | 5301
CG16758 (GeneID 38315) | 2 | 1.11e5 | 95756 | – | 5746 | 4091
mod(mdg4) + pre-mod(mdg4)-Z + pre-mod(mdg4)-T | 1 | 52375 | 1.59e5 | – | 10715 | 3963
mod(mdg4) + pre-mod(mdg4)-Z + pre-mod(mdg4)-T | 2 | 7.97e5 | 2.22e5 | – | 41274 | 6003
CycE (GeneID 34924) | 1 | 34103 | 38368 | – | 1761 | 1910
CycE (GeneID 34924) | 2 | 86474 | 42162 | – | 2579 | 4248
CG10598 (GeneID 32713) | 1 | 1.06e5 | 1.83e5 | – | 2080 | 8157
CG12684 (GeneID 31390) | 1 | 59245 | 2.41e5 | – | 2215 | 8663
Wdr33 (GeneID 40698) | 1 | 1.12e5 | 67936 | – | 5797 | 3824
mgr (GeneID 41365) | 1 | 55248 | 84752 | – | 1346 | 2394
CG42758 (GeneID 10178900) | 1 | 1.25e5 | – | – | 3248 | 3208
wcy (GeneID 32690) | 1 | 72688 | 71268 | – | 1512 | 1780
RunxA (GeneID 4379817) | 1 | 7.73e5 | 3.01e5 | – | 49213 | 7725
RunxA (GeneID 4379817) | 2 | 1.17e5 | 70953 | – | 3112 | 1777
RunxA (GeneID 4379817) | 3 | 96989 | 6.27e5 | 2.31e5 | 3877 | 4777
mthl13 (GeneID 246395) | 1 | 1.32e5 | 2.48e5 | – | 3713 | 10664
mbc (GeneID 42817) | 1 | 5.36e5 | 86387 | – | 27415 | 3206
CG46385 (GeneID 246653) | 1 | 23896 | 19565 | – | 1450 | 1029
CG46385 (GeneID 246653) | 2 | 67353 | 45098 | – | 1380 | 3201
Rdh1 (GeneID 35708) | 1 | 1.22e5 | 91156 | – | 4480 | 3040
CG10864 (GeneID 42222) | 1 | 5.89e5 | 1.04e5 | – | 29820 | 2996
CG43149 (GeneID 12798539) | 1 | 1.51e5 | 2.75e5 | – | 3139 | 9380
ubl (GeneID 35592) | 1 | 89692 | 32403 | – | 2240 | 2330
CG8777 (GeneID 35921) | 1 | 63852 | 47227 | – | 2523 | 1795
CG3009 (GeneID 31402) | 1 | 1.26e5 | 83014 | – | 2651 | 1779

Copied from the listing, 3 entries:
Target gene | dsRNA no. | firefly Hh reporter signal, replicate 1 | firefly Hh reporter signal, replicate 2 | firefly Hh reporter signal, replicate 3 | Renilla reference signal, replicate 1 | Renilla reference signal, replicate 2
RunxA (GeneID 4379817) | 1 | 7.73e5 | 3.01e5 | – | 49213 | 7725
RunxA (GeneID 4379817) | 2 | 1.17e5 | 70953 | – | 3112 | 1777
RunxA (GeneID 4379817) | 3 | 96989 | 6.27e5 | 2.31e5 | 3877 | 4777

The results go on.
Target gene | dsRNA no. | firefly Hh reporter signal, replicate 1 | firefly Hh reporter signal, replicate 2 | firefly Hh reporter signal, replicate 3 | Renilla reference signal, replicate 1 | Renilla reference signal, replicate 2
CG32668 (GeneID 318147) | 1 | 4.55e5 | 2.52e5 | – | 24237 | 5612
Ir54a + sub | 1 | 97516 | 43301 | – | 2838 | 2944
GstO1 (GeneID 38975) | 1 | 31008 | 65392 | – | 3600 | 4765
7B2 (GeneID 40644) | 1 | 56403 | 78027 | – | 2164 | 2503
PpN58A (GeneID 37493) | 1 | 68025 | 64002 | – | 2987 | 2604
Prosalpha4 (GeneID 32584) | 1 | 74641 | 1.95e5 | – | 2780 | 9893
C1GalTA (GeneID 34215) | 1 | 71489 | 72925 | – | 3320 | 3384
OtopLa (GeneID 8674066) | 1 | 81612 | 4.95e5 | 2.54e5 | 3394 | 3483
OtopLa (GeneID 8674066) | 2 | 93434 | 2.77e5 | – | 3632 | 11089
CG15539 (GeneID 43627) | 1 | 89511 | 93283 | – | 3907 | 2032
CG33325 (GeneID 2768664) | 1 | 1.30e5 | – | – | 2824 | –
CG34214 (GeneID 5740774) | 1 | 1.19e5 | 62860 | – | 3970 | 2112
CG1698 (GeneID 36006) | 1 | 80234 | 55283 | – | 2976 | 2048
CG7102 (GeneID 34079) | 1 | 1.61e5 | 66166 | – | 5494 | 3043
CG7102 (GeneID 34079) | 2 | 97713 | 63832 | – | 2435 | 5008
CG43109 (GeneID 12798341) | 1 | 89265 | 1.97e5 | – | 2241 | 8248
lectin-37Da (GeneID 3346222) | 1 | 1.74e5 | 4.60e5 | 77197 | 4209 | 26772
CG5509 (GeneID 41539) | 1 | 90130 | 1.19e5 | – | 1696 | 6984
lncRNA:CR41443 (GeneID 12798069) | 1 | 1.61e5 | 3.06e5 | – | 4538 | 12985
CG31778 (GeneID 261616) | 1 | 1.09e5 | 1.04e5 | – | 3824 | 4598
atilla (GeneID 34647) | 1 | 1.67e5 | 85196 | – | 4064 | 7719
CG12395 (GeneID 32571) | 1 | 82055 | 2.26e5 | – | 2096 | 9144
CG33012 (GeneID 36342) | 1 | 73875 | 52182 | – | 2040 | 3778
CG33012 (GeneID 36342) | 2 | 1.14e5 | 51466 | – | 2973 | 4509
psidin (GeneID 42389) | 1 | 5.99e5 | 1.22e5 | – | 30058 | 3229
CG7556 (GeneID 32902) | 1 | 1.25e5 | 1.00e5 | – | 3081 | 1915
fs(1)M3 (GeneID 45994) | 1 | 84867 | 1.07e5 | – | 2068 | 2408
Saf-B (GeneID 42958) | 1 | 1.46e5 | 70534 | – | 5847 | 2886
Myc (GeneID 31310) | 1 | 41920 | 80410 | – | 882 | 2884
CG5478 (GeneID 41936) | 1 | 98484 | 1.14e5 | – | 2824 | 3062
pcm (GeneID 32935) | 1 | 98963 | 1.21e5 | – | 2352 | 2848
mon2 (GeneID 326157) | 1 | 82707 | 53721 | – | 2953 | 4666
